PMC5845537 (Frontiers in Pharmacology, 2018)

Test system: Sprague-Dawley rats
Assay: Rat object recognition (OR) task after subchronic PCP
Assay type: in vivo
Details: rat novel object recognition, mean ± SEM
[1] = PCP/10Vor group (subPCP + 10 mg/kg vortioxetine)

Structure (SMILES)	Total exploration time, Testing Trial [1]	Total exploration time, Training Trial [1]	Total exploration time, Testing Trial (PCP/Veh group)	Total exploration time, Training Trial (PCP/Veh group)
Cc1ccc(Sc2ccccc2N2CCNCC2)c(C)c1 [vortioxetine]	30 ± 3.2 s	34.1 ± 2.8 s		
Cl.c1ccc(C2(N3CCCCC3)CCCCC2)cc1 [PCP, 1-(1-phenylcyclohexyl)-piperidine hydrochloride]			33.8 ± 5 s	34.6 ± 2.8 s
